{"source": "PubChem BioAssay AID1347076", "about": "(National Center for Advancing Translational Sciences (NCATS), 2019)", "note": "Hit rate of the full screen: of about 400,000 compounds, about 13,000 (3.2%) were called active. The shares of active, inactive and inconclusive entries below differ from those in the screen. The call rests on the fitted dose curve; in most records, active means well fitted cell-killing curve with a large enough effect; inconclusive means small, poorly fitted or top-dose-only effect, or effect the other way; inactive means flat fitted curve, though single readings scatter. Where the call is inconclusive, the potency comes from a doubtful curve fit. On the % scale 0 is the no-effect control and ±100 the full control effect; potency means the concentration at half of the fitted maximal effect."}
{"experiment": "qHTS assay for MDR1-selective chemotherapeutics: Primary screen using the drug-selected MDR subline cells KB-V1; further: nearly all actives have a fitted effect of over 60% in size", "conditions": "KB-V1 MDR cells viability, CellTiter-Glo, 72 h; activity change, negative = cytotoxicity: at 46.1 µM (top of the series)", "outline": "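Cells of the MDR subline KB-V1 are plated, dosed with compound at multiple concentrations, and incubated 72 h at 37 degrees C; CellTiter-Glo is then added and luminescence read after 10 min.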"}
{"smiles": "O=C(c1ccc([N+](=O)[O-])s1)N1CCN(c2ncccn2)CC1", "Potency": "inconclusive: 29.1 µM [cytotoxic, single point]"}
{"smiles": "Cc1ccc(C)c(S(=O)(=O)N2CCN(Cc3ccc(O)c4ncccc34)CC2)c1", "Potency": "inconclusive: 29.1 µM [cytotoxic, single point]"}
{"smiles": "Cc1ccc(-c2nc3scc(CCNC(=O)Cc4ccc(Cl)cc4)n3n2)cc1", "activity change, negative = cytotoxicity": "inactive: -5.41%"}
{"smiles": "Nc1ncnc2c1ncn2[C@@H]1O[C@H](C(=O)NCCCN2CCCC2=O)[C@@H](O)[C@H]1O", "activity change, negative = cytotoxicity": "inactive: 2.39%"}
{"smiles": "CCOc1ccc(S(=O)(=O)N2CCN(Cc3ccccc3)CC2)cc1", "Potency": "inconclusive: 14.6 µM [cytotoxic, partial curve]"}
{"smiles": "C=CCSc1nnc(CCCCCN2C(=O)c3cccc4cccc(c34)C2=O)o1", "Potency": "inconclusive: 8.2 µM [cytotoxic, partial curve]"}
{"smiles": "CC[C@]12c3[nH]c4ccc(Cl)cc4c3CCN1C(=O)[C@@H](CC(=O)NCC13CC4CC(CC(C4)C1)C3)C[C@@H]2C(=O)N1CCN(C(=O)c2ccco2)CC1", "Potency": "inconclusive: 29.1 µM [cytotoxic, single point]"}
{"smiles": "COC(=O)c1cnn2c(C(F)(F)F)cc(-c3ccc(F)cc3)nc12", "Potency": "inconclusive: 10.3 µM [cytotoxic, partial curve]"}
{"smiles": "CCC(C)NC(=O)c1ccccc1NC(=O)c1ccc(CSc2ccc(C)cc2)cc1", "note": "(configuration not stated)", "activity change, negative = cytotoxicity": "inactive: -6.72%"}
{"smiles": "COc1ccc(S(=O)(=O)n2nc(C)c(S(=O)(=O)N3CCC(C)CC3)c2C)cc1C", "Potency": "inconclusive: 29.1 µM [rising, single point]"}
{"smiles": "Cc1nc2c(C)[n+](CC(=O)c3ccccc3)ccc2n1C", "Potency": "inconclusive: 14.6 µM [rising, partial curve, poor fit]"}
{"smiles": "Cc1nn(Cc2ccc(Cl)cc2)c(C)c1NC(=O)C(c1ccccc1)c1ccccc1", "Potency": "active: 11.6 µM"}
{"smiles": "N#Cc1nc(-c2ccccc2Cl)oc1N1CCCCC1", "activity change, negative = cytotoxicity": "inactive: 0%"}
{"smiles": "CCOC(=O)Cn1c(CN(Cc2ccccc2)Cc2ccccc2)nc2c1c(=O)[nH]c(=O)n2C", "Potency": "inconclusive: 10.3 µM [cytotoxic, partial curve, poor fit]"}
{"smiles": "O=C(CSc1ccncc1)Nc1ccc(S(=O)(=O)Nc2nccs2)cc1", "Potency": "inconclusive: 0.164 µM [cytotoxic, full curve]"}
{"smiles": "Cc1nnc(-c2ccccc2)c(=O)n1/N=C/c1c(O)ccc2ccccc12", "Potency": "active: 2.91 µM"}
{"smiles": "CCN(CC)c1ccc(NS(=O)(=O)c2ccc(-c3cnc(C4CC4)o3)cc2)c(C)c1", "activity change, negative = cytotoxicity": "inactive: 16.1%"}
{"smiles": "COc1cc(NS(=O)(=O)c2ccc3c(c2)NC(=O)CO3)cc(OC)c1", "Potency": "inconclusive: 25.9 µM [rising, single point]"}
{"smiles": "O=C(CSc1nc2c([nH]c3ccccc32)c(=O)n1-c1ccccc1F)NCC1CCCO1", "note": "(configuration not stated)", "Potency": "inconclusive: 29.1 µM [cytotoxic, single point]"}
{"smiles": "NC(=O)C1CCN(C(=S)c2ccc(-c3ccc(Br)cc3)o2)CC1", "activity change, negative = cytotoxicity": "inactive: 0%"}
{"smiles": "COc1ccc(-c2noc(CN(C(=O)COc3cc(C)c(Br)c(C)c3)C(C)C)n2)cc1", "Potency": "inconclusive: 14.6 µM [cytotoxic, partial curve]"}
{"smiles": "CCOc1ccc(CN2CCN(Cc3ccsc3)C(CCO)C2)cc1CO", "note": "(configuration not stated)", "activity change, negative = cytotoxicity": "inactive: -7.7%"}
{"smiles": "O=[N+]([O-])c1cc([N+](=O)[O-])c(Oc2ccccc2F)cc1NN1CCCCC1", "Potency": "inconclusive: 2.06 µM [rising, full curve]"}
{"smiles": "O=C(CCCN1C(=O)/C(=C\\c2cccs2)SC1=S)Nc1ccc(C(=O)O)cc1", "activity change, negative = cytotoxicity": "inactive: -5.23%"}
{"smiles": "COc1cc(/C=C/C(=O)c2ccc(NS(=O)(=O)c3ccc(C)cc3)cc2)ccc1OC(F)F", "Potency": "inconclusive: 20.6 µM [cytotoxic, single point]"}
{"smiles": "COc1cc(C#Cc2c(-c3ccccc3OC)oc3ccccc23)cc(OC)c1", "activity change, negative = cytotoxicity": "inactive: 1.99%"}
{"smiles": "CC(C)OC(=O)c1cc(-c2ccc(C=O)o2)ccc1Cl", "Potency": "inconclusive: 29.1 µM [cytotoxic, single point]"}
{"smiles": "O=C(CSc1nnc(COc2cccc3cccnc23)o1)N1CCCC1", "Potency": "inconclusive: 23.1 µM [cytotoxic, partial curve, poor fit]"}
{"smiles": "COc1cc(C(=O)NCCCc2nc3ccccc3n2CC(C)C)cc(OC)c1OC", "activity change, negative = cytotoxicity": "inactive: -7.97%"}
{"smiles": "O=C(C1CCN(S(=O)(=O)c2ccc(Br)s2)CC1)N1CCN(c2cccc(Cl)c2)CC1", "activity change, negative = cytotoxicity": "inactive: 0%"}
{"smiles": "COc1ccc(NC(=O)c2cccc(S(=O)(=O)N3CCCCCC3)c2)cc1", "Potency": "inconclusive: 3.66 µM [cytotoxic, full curve]"}
{"smiles": "C[C@H]1[C@H](C)CC[C@]2(C)CC[C@]3(C)C(=CC(=O)C4[C@@]5(C)CC[C@H](O)C(C)(C)C5CC[C@]43C)[C@H]12", "note": "(some centres not stated)", "activity change, negative = cytotoxicity": "inactive: 19.5%"}
{"smiles": "CCc1noc(C)c1C(=O)Nc1nc(-c2ccc(OC)cc2OC)cs1", "activity change, negative = cytotoxicity": "inactive: -2.81%"}
{"smiles": "O=C(COc1ccc(Cl)cc1Cl)NCc1ccncc1", "Potency": "active: 18.4 µM"}
{"smiles": "NC(=O)c1c(NC(=O)c2nc(SCc3ccccc3F)ncc2Cl)sc2c1CCCC2", "activity change, negative = cytotoxicity": "inactive: 5.19%"}
{"smiles": "COc1ccc(C(C)=O)cc1CSc1ncccn1", "Potency": "inconclusive: 29.1 µM [cytotoxic, single point]"}
{"smiles": "O=C(O)c1cc(-c2cccc(Cl)c2)nc2nc(N3CCCCC3)sc12", "Potency": "inconclusive: 29.1 µM [rising, single point]"}
{"smiles": "CCC1(C)Cc2ccccc2-c2nc3n(c(=O)c21)CCS3", "note": "(configuration not stated)", "Potency": "inconclusive: 16.4 µM [cytotoxic, partial curve]"}
{"smiles": "CC(=O)c1cc(-c2ccccc2)n(CCC(=O)NC2CCCC2)c1C", "Potency": "inconclusive: 29.1 µM [cytotoxic, single point]"}
{"smiles": "CCCCN(CCCC)S(=O)(=O)c1ccc(NC(=O)c2cccs2)cc1", "Potency": "inconclusive: 7.31 µM [cytotoxic, partial curve]"}
{"smiles": "C/C(=N\\Nc1nnc2c3ccccc3n(C)c2n1)c1ccc(C)o1", "Potency": "inconclusive: 16.4 µM [cytotoxic, single point]"}
{"smiles": "Cc1cc(C)cc(-n2ccnc2SCC(=O)Nc2nnc(C)s2)c1", "Potency": "inconclusive: 3.26 µM [cytotoxic, partial curve, poor fit]"}
{"smiles": "COc1ccccc1N1CCN(C2CCCC(C)C2)CC1", "note": "(configuration not stated)", "activity change, negative = cytotoxicity": "inactive: -11%"}
{"smiles": "CCOC(=O)c1sc2ncn(CC(=O)Nc3ccc(N(C)C)cc3)c(=O)c2c1C", "Potency": "inconclusive: 20.6 µM [rising, partial curve]"}
{"smiles": "CC1(C)Cc2ccccc2-c2nnc(SCC(=O)Nc3ccc4c(c3)OCO4)n21", "Potency": "active: 4.11 µM"}
{"smiles": "COc1ccc(CN2CCNC(=O)C2CC(=O)N(C)Cc2nccs2)cc1OC", "note": "(configuration not stated)", "Potency": "inconclusive: 29.1 µM [rising, single point]"}
{"smiles": "CCC(=O)N(c1nnc(SC(C)C(=O)Nc2ccc(N3CCOCC3)cc2)s1)C1CC1", "note": "(configuration not stated)", "Potency": "inconclusive: 13 µM [cytotoxic, partial curve, poor fit]"}
{"smiles": "CCS(=O)(=O)N1CCc2cc(C(=O)Nc3ccc(OC)c(Cl)c3)ccc21", "activity change, negative = cytotoxicity": "inactive: -23.4%"}
{"smiles": "COc1ccc(Br)cc1CNC(=O)C1CCN(S(=O)(=O)N2CCCC2)CC1", "Potency": "inconclusive: 5.8 µM [cytotoxic, partial curve, poor fit]"}
{"smiles": "Cc1cc2oc(=O)cc(CN(C)Cc3ccccc3F)c2cc1Cl", "activity change, negative = cytotoxicity": "inactive: 0%"}
{"smiles": "CC(C)N(Cc1ccccc1)C(=O)COC(=O)c1cc(S(=O)(=O)N(C)C)ccc1N1CCCC1", "activity change, negative = cytotoxicity": "inactive: -26.1%"}
{"smiles": "CN(C(=O)c1ccc([N+](=O)[O-])cc1)c1ccccc1C(=O)NCc1ccccc1", "Potency": "inconclusive: 29.1 µM [cytotoxic, single point]"}
{"smiles": "Cc1cc(C)n(-c2nnc(C)n2/N=C/c2ccccc2O)n1", "activity change, negative = cytotoxicity": "inactive: -1.65%"}
{"smiles": "O=C(c1ccco1)N1C(=O)c2cccc3c(S(=O)(=O)N4CCCC4)ccc1c23", "Potency": "inconclusive: 18.4 µM [cytotoxic, partial curve, poor fit]"}
{"smiles": "Cc1cc(NC(=O)CSc2nnc(-c3cccs3)n2N)no1", "Potency": "inconclusive: 29.1 µM [rising, single point]"}
{"smiles": "COc1cccc(NC(=O)CN(C)C(C)C(=O)Nc2ccc(C#N)cc2)c1", "note": "(configuration not stated)", "Potency": "inconclusive: 25.9 µM [cytotoxic, partial curve, poor fit]"}
{"smiles": "COCCn1c(C(=O)N(C)C)cc2c1C[C@H]1CN(C(=O)c3ccccc3)[C@@](Cc3ccc(F)cc3)(C(=O)OC)[C@@H]21", "Potency": "inconclusive: 7.31 µM [cytotoxic, partial curve, poor fit]"}
{"smiles": "O=C(NCC(F)(F)F)c1cc2c(c(-c3cccc(-c4ccccc4F)c3)n1)[C@@H](CCO)N(C(=O)CC1CC1)C2", "Potency": "inconclusive: 29.1 µM [cytotoxic, single point]"}
{"smiles": "O=C(Nc1ccncc1)c1ccc(Cl)c(S(=O)(=O)N2CCCC2)c1", "Potency": "inconclusive: 18.4 µM [cytotoxic, single point]"}
{"smiles": "O=C(N/N=C/c1ccccc1F)c1cc2c(ccc3ccccc32)o1", "activity change, negative = cytotoxicity": "inactive: -11.3%"}
{"smiles": "CCOc1ccc(C(=O)COC(=O)Cc2n[nH]c(=O)c3ccccc23)cc1", "Potency": "active: 4.61 µM"}
{"smiles": "COc1ccc(N2CCN(S(=O)(=O)c3ccc4oc(=O)c5ncn(C)c5c4c3)CC2)cc1", "Potency": "inconclusive: 18.4 µM [rising, partial curve, poor fit]"}
{"smiles": "Cn1c(=O)c2c(nc(NCc3ccc4c(c3)OCO4)n2Cc2ccccc2F)n(C)c1=O", "Potency": "inconclusive: 14.6 µM [cytotoxic, partial curve]"}
{"smiles": "COc1ccc(-c2nc3sc(CCNC(=O)c4cc(OC)c(OC)c(OC)c4)c(C)n3n2)cc1", "activity change, negative = cytotoxicity": "inactive: -3.49%"}
{"smiles": "O=C(COC(=O)/C=C/c1ccc(F)cc1)Nc1ccc(S(=O)(=O)N2CCOCC2)cc1", "activity change, negative = cytotoxicity": "inactive: -18.4%"}
{"smiles": "Cc1nn(Cc2cccc(C(=O)N3N=C(C(F)F)CC3(O)C(F)F)c2)c(C)c1[N+](=O)[O-]", "note": "(configuration not stated)", "Potency": "active: 8.2 µM"}
{"smiles": "O=C(CSC1=Nc2ccccc2C2=NC(CC(=O)NC3CCCCC3)C(=O)N12)Nc1ccc(F)cc1", "note": "(configuration not stated)", "Potency": "inconclusive: 29.1 µM [cytotoxic, single point]"}
